# Experimental data as given in patent US5565606A, “Synthesis of peptide aminoalkylamides and peptide hydrazides by the solid-phase method” (Hoechst Aktiengesellschaft, priority 1986, dated 1996).
# Part of at least one peptide drawing is inferred or uncertain, most often the ends. Bridge positions count the residues as written; N and C are the ends. Peptide text beside a SMILES is read from it. * marks the point of attachment. NH(CH2)4NH2 = NCCCCN*
# Tested on: diuretic and saluretic biological activity
# Experiment: Diuretic and saluretic biological activity (stated, no method)
smiles,measurement,value
"CC[C@H](C)[C@@H]1NC(=O)[C@H](CCCNC(=N)N)NC(=O)[C@H](CC(=O)O)NC(=O)[C@H]([C@@H](C)CC)NC(=O)[C@H](CCCNC(=N)N)NC(=O)CNC(=O)CNC(=O)[C@H](Cc2ccccc2)NC(=O)[C@@H](NC(=O)[C@H](CO)NC(=O)[C@@H](N)CO)CSSC[C@@H](C(=O)N[C@@H](CC(N)=O)C(=O)N[C@@H](CO)C(=O)N[C@@H](Cc2ccccc2)C(=O)NCCCCN)NC(=O)CNC(=O)[C@H](CC(C)C)NC(=O)CNC(=O)[C@H](CO)NC(=O)[C@H](CCC(N)=O)NC(=O)[C@H](C)NC(=O)CNC1=O [Example 6, [des-Tyr^24 des-Arg^23]-r-atriopeptinIII-(4-amino)butylamide] (H-SSCFGGRIDRIGAQSGLGCNSF-{NH(CH2)4NH2}; disulfide 3-19)",diuretic and saluretic biological activity,has diuretic and saluretic biological activity
